Experimental findings from PMC4206862 are described below.

By UniProt entry, the sequences of proteins in these tests, tags left out.
UniProt Q8BGW1: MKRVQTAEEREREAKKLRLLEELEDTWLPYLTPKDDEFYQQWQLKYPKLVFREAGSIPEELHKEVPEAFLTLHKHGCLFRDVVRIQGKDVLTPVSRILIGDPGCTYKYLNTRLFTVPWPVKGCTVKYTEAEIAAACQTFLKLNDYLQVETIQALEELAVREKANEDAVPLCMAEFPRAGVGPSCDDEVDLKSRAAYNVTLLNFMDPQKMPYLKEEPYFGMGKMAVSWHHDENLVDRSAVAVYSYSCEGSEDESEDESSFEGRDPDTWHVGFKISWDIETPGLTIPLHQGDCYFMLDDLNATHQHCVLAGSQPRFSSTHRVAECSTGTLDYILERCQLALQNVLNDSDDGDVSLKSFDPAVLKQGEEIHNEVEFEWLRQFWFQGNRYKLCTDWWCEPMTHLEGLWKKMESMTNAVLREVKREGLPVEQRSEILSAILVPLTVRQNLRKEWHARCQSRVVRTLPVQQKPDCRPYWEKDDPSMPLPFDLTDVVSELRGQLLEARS

Test [1] addresses Flag-epitope tagged FTO (fat mass and obesity-associated protein), WT full-length (UniProt Q9C0B1). Put plainly: co-IP; Flag IP from extracts of HEK-293 cells transfected with vector alone, Flag-FTO or truncated FTO, 48 h; Western blotting of the immunoprecipitates. On the technique in general: Immunoblotting shows a protein as a band on a membrane.
The target of test [2] is FTO, endogenous in wild-type mouse embryonic fibroblasts (mouse (endogenous in MEFs)) (UniProt Q8BGW1). Put plainly: co-IP; IP of endogenous FTO with anti-FTO antibody from extracts of Fto+/+ and Fto-/- MEFs; Western blotting.

Results are given in words; binding and its absence hold for the method and conditions named. Binding seen in cells or lysates may run through a third protein. Some results given as binding are weak or reduced against the parent protein; the word gives no strength.

As for “Exportin 2 (XPO2), endogenous in HEK-293 cells (from UniProt P55060 1-971)”, the binding entry in test [1] is recorded as “binds”.

B1: Exportin 2 (XPO2), endogenous in mouse embryonic fibroblasts (protein, UniProt Q9ERK4 1-971)
chain: MELSDANLQTLTEYLKKTLDPDPAIRRPAEKFLESVEGNQNYPLLLLTLLEKSQDNVIKVCASVTFKNYIKRNWRIVEDEPNKICEADRVAIKANIVHLMLSSPEQIQKQLSDAISIIGREDFPQKWPDLLTEMVNRFQSGDFHVINGVLRTAHSLFKRYRHEFKSNELWTEIKLVLDAFALPLTNLFKATIELCSTHANDASALRILFSSLILISKLFYSLNFQDLPEFFEDNMETWMNNFHTLLTLDNKLLQTDDEEEAGLLELLKSQICDNAALYAQKYDEEFQRYLPRFVTAIWNLLVTTGREVKYDLLVSNAIQFLASVCERPHYKNLFEDQNTLTSICEKVIVPNMEFRAADEEAFEDNSEEYIRRDLEGSDIDTRRRAACDLVRGLCKFFEGPVTGIFSGYVNSMLQEYAKNPSVNWKHKDAAIYLVTSLASKAQTQKHGITQANELVNLTEFFVNHILPDLKSNNVNEFPVLKADGIKYIMIFRNQVPKEHLLVSIPLLISHLEAESIVVHTYAAHALERLFTMRGSNNTTLFTAAEIAPFVEILLTNLFKALTLPGSSENEYIMKAIMRSFSLLQEAIIPYIPTLITQLTQKLLAVSKNPSKPHFNHYMFEAICLSIRITCKANPAAVVNFEEALFLVFTEILQNDVQEFIPYVFQVMSLLLETHKNDIPSSYMALFPHLLQPVLWERTGNIPALVRLLQAFLERGSSTIATAAADKIPGLLGVFQKLIASKANDHQGFYLLNSIIEHMPPESVDQYRKQIFILLFQRLQNSKTTKFIKSFLVFINLYCIKYGALALQEIFDGIQPKMFGMVLEKIIIPEIQKVSGNVEKKICAVGITKLLTECPPMMDTEYTKLWTPLLQSLIGLFELPEDDSIPDEEHFIDIEDTPGYQTAFSQLAFAGKKEHDPVGQMVNNPKIHLAQSLHKLSTACPGRVPSMVSTSLNAEALQYLQGYLQAASVTLL
For B1, the binding entry in test [2] is reported as “binds”.
